We go through 1 sequence from publication PMC9120067.

Construct, isoform or probe ends are uncertain for at least one entry.

This series deals with His6-GB1-SinR + His6-ExpR. Put plainly: EMSA. To be noted: 70 uM His-GB1-SinR, 1 uM His-ExpR, 10 uM 3-oxo-C16:1-HSL, SinR-dependent supershift, 20 mM HEPES-Na pH 7.5, 200 mM NaCl, 50 mM KCl, 20 mM MgCl2, 1 ug/ul BSA, 0.0025 U/ul sonicated sperm DNA, 0.1% DMSO, 2.75 nM DNA, recombinant protein, protein details: N-terminal His6-GB1,His6, label: Cy3 at 5' end of forward primer 264f, probe letters rebuilt from the primers and the genome.

For “CGTGATTACGCGATGTAGCGATGCTGTCAGGCTCGGATGACACATGTAACTGTCTATAGTGACAGTTTATTTCCTCATTTTTTCCCAATAGATTTGTGGGGGAATCTGCGGGTGGCCGGTCCTGTCCCGGGCCGGCAACCCGTCAGATGGTGGGGATCAGAGCATGTCGAACAGCGT (double strand) [sinI promoter 177 bp fragment]”, the binding result is listed as “binds”.
